Results are given in words; binding and its absence hold for the method and conditions named. Binding seen in cells or lysates may run through a third protein. Some results given as binding are weak or reduced against the parent protein; the word gives no strength.
Tests used:
[1] = target: WDR26 (endogenous) (human) (UniProt Q9H7D7); experiment: co-immunoprecipitation, western blot (FIG. 11b)
[2] = target: WDR26 (endogenous) (human) (UniProt Q9H7D7); experiment: co-immunoprecipitation of the endogenous proteins from MCF10A and CA1D cells, western blot

Sequences of proteins named here, by UniProt entry; tags and fusion partners are left off.
UniProt Q9H7D7: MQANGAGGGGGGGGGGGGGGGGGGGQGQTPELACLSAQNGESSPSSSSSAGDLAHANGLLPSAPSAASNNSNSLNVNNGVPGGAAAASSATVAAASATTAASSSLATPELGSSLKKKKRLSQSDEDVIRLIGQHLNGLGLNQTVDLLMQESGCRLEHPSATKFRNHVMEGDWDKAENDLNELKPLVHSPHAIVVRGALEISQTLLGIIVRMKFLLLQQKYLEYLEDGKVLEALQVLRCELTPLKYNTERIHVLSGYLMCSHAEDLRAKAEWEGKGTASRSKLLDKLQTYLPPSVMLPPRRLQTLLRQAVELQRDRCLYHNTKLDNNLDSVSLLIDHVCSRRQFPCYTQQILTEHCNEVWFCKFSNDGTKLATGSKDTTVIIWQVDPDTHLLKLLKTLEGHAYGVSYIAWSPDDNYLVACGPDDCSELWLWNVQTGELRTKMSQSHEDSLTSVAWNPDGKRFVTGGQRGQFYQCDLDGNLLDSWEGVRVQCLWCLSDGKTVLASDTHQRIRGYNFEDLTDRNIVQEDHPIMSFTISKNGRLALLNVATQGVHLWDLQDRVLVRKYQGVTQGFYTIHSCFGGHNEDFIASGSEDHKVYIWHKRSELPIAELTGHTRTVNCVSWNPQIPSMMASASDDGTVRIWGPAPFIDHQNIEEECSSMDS

B1: NOLC1 (also known as Nopp140) (protein, human, UniProt Q14978 1-699, looked up)
chain: MADAGIRRVVPSDLYPLVLGFLRDNQLSEVANKFAKATGATQQDANASSLLDIYSFWLKSAKVPERKLQANGPVAKKAKKKASSSDSEDSSEEEEEVQGPPAKKAAVPAKRVGLPPGKAAAKASESSSSEESSDDDDEEDQKKQPVQKGVKPQAKAAKAPPKKAKSSDSDSDSSSEDEPPKNQKPKITPVTVKAQTKAPPKPARAAPKIANGKAASSSSSSSSSSSSDDSEEEKAAATPKKTVPKKQVVAKAPVKAATTPTRKSSSSEDSSSDEEEEQKKPMKNKPGPYSSVPPPSAPPPKKSLGTQPPKKAVEKQQPVESSEDSSDESDSSSEEEKKPPTKAVVSKATTKPPPAKKAAESSSDSSDSDSSEDDEAPSKPAGTTKNSSNKPAVTTKSPAVKPAAAPKQPVGGGQKLLTRKADSSSSEEESSSSEEEKTKKMVATTKPKATAKAALSLPAKQAPQGSRDSSSDSDSSSSEEEEEKTSKSAVKKKPQKVAGGAAPSKPASAKKGKAESSNSSSSDDSSEEEEEKLKGKGSPRPQAPKANGTSALTAQNGKAAKNSEEEEEEKKKAAVVVSKSGSLKKRKQNEAAKEAETPQAKKIKLQTPNTFPKRKKGEKRASSPFRRVREEEIEVDSRVADNSFDAKRGAAGDWGERANQVLKFTKGKSFRHEKTKKKRGSYRGGSISVQVNSIKFDSE
For B1, the binding [1] was “binds” and the binding [2] was “binds”.

From US20230057430A1
